Assay results from PMC4068993, “Chlamydia pneumoniae CopD Translocator Protein Plays a Critical Role in Type III Secretion (T3S) and Infection” (PLoS ONE, 2014).
Where a chain is given by its changes, count along the chain named. No constants are given. Whether binding was seen depends on the method and setting. Binding seen in cells or lysates may run through a third protein. Tags and fused reporters may be left off the sequences shown.

What was measured:
Assay in all cases: pull-down; GST-tagged bait on glutathione-agarose beads blocked with 5% BSA; 1 mL E. coli lysate with overexpressed His-tagged prey, 2 h at 4°C; seven washes with high salt buffer (500 mM KCl, 20 mM TRIS-HCl pH 7.0, 0.1% Triton X-100; results say 500 mM NaCl); anti-His Western blot; only the target purified
[1] = biological target: T1, GST-^ΔL122ACopD_(1–157) (Chlamydia pneumoniae CWL029) (UniProt Q9Z798)
T1 sequence: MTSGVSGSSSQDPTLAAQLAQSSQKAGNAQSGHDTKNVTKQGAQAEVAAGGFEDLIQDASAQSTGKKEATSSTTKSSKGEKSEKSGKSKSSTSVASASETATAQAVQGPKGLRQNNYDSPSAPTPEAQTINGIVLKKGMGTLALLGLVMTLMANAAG

[2] = biological target: T2, GST-^ΔP125ACopD_(1–157) (Chlamydia pneumoniae CWL029) (UniProt Q9Z798)
T2 sequence: T1 sequence with A122L, P125A

[3] = biological target: T3, GST-^ΔP120ACopD_(1–157) (Chlamydia pneumoniae CWL029) (UniProt Q9Z798)
T3 sequence: T1 sequence with P120A, A122L

Measured: binding

His-LcrH_1 (Chlamydia pneumoniae CWL029)
no binding: [1] | [2] | [3]
